These are yes or no findings as the source states them, for the method shown. For some of these results: In cells and extracts the contact can be indirect. Some binding calls cover weakened binding; strength is not graded here.
How the values were obtained:
[1] = biological target: GST-ERα-C (aa 251-595) (human) (UniProt P03372); test: pull-down; GST-ERα proteins on glutathione beads incubated with baculovirus-expressed, partially purified human GR; 50 mM Tris pH 8.0, 5 mM EDTA, 150 mM NaCl, 0.5% Nonidet P-40, 1 h at 4 °C; washes with up to 500 mM NaCl; blot for GR; both purified
[2] = biological target: estrogen receptor α (ERα), endogenous in MCF-7 cells (human (endogenous in MCF-7)) (UniProt P03372); test: co-IP; whole cell extracts of MCF-7 cells treated with VEH, E2 (10 nM), Dex (100 nM) or E2+Dex for 1 h; endogenous ERα immunoprecipitated with anti-ERα (HC-20), blot for GR; lysis buffer 50 mM Tris-HCl pH 7.5, 5 mM EDTA, 150 mM NaCl, 0.5% Nonidet P-40, 5% glycerol
[3] = biological target: GST-GR-DBD (aa 435-510) (UniProt P06536); test: pull-down; GST-GR proteins immobilised on glutathione beads incubated with in vitro translated ERα (TNT system); washed as in the forward pull-down; blot with anti-ERα (HC-20); only the target purified
[4] = biological target: GST-GR-DBD (R488Q) (UniProt P06536); test: as above

By UniProt entry, the sequences of proteins in these tests, tags left out. Where a name states a change or a piece, a line headed by the entry shows the natural chain unless it says otherwise. Chains listed by the source or under a name are the forms on record and can include a tag or linker. Residues count along the entry.
UniProt P03372: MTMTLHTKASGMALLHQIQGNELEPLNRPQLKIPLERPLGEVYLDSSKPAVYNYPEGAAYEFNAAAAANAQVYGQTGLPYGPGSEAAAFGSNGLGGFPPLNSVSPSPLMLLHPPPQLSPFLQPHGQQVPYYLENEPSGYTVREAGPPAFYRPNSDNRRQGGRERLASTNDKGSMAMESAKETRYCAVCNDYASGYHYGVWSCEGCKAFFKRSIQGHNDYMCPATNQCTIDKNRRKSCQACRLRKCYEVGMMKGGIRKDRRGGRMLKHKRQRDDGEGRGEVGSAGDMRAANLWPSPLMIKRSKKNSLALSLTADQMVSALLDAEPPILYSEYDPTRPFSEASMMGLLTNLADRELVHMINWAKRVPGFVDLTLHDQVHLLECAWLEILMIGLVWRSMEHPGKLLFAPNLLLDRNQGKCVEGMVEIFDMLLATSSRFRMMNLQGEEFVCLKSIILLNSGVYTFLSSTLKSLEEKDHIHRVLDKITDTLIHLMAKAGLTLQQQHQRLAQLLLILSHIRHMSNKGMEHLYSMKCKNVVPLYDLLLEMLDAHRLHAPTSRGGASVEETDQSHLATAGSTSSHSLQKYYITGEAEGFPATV
GST-ERα-C (aa 251-595): residues 251-595 of P03372
GST-GR-DBD (aa 435-510) (P06536, residues 435-510): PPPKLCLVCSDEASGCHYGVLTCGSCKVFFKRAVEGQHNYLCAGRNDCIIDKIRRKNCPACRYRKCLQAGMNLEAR
GST-GR-DBD (R488Q) (P06536, form named): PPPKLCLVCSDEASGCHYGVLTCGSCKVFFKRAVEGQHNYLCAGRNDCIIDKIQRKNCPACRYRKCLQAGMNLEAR
UniProt P04150: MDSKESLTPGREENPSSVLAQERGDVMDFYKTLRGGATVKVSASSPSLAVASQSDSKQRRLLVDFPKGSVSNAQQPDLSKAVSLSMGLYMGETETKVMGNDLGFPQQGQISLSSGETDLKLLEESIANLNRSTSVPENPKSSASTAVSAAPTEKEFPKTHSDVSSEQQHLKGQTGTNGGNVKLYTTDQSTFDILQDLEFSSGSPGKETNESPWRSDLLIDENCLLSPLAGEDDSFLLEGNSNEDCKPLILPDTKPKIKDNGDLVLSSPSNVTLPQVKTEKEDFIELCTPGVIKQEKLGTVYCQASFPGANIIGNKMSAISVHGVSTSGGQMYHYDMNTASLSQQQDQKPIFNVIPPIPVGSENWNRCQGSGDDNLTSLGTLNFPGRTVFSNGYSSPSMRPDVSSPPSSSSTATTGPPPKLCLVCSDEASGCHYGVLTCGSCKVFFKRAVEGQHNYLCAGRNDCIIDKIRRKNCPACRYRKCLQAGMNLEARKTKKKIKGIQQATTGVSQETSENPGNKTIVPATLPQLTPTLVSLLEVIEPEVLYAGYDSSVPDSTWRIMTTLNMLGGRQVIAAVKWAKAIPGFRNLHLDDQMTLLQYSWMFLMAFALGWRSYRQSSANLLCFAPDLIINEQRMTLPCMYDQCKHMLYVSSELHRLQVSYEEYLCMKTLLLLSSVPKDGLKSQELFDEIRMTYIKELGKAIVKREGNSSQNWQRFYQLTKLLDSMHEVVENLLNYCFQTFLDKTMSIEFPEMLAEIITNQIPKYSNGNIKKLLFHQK

In the case of “baculovirus expressed full-length human GR (from UniProt P04150 1-777) (receptor)”, the binding [1] is reported as “binds weakly”.
“glucocorticoid receptor (GR), endogenous in MCF-7 cells (from UniProt P04150 1-777)” was tested, and the binding [2] was “binds”.
In the case of “in vitro translated full-length human ERα (from UniProt P03372 1-595) (receptor)”, the binding [3] is reported as “binds” and the binding [4] is reported as “no binding”.
